Test results: paper PMC7102954, “A crucial RNA-binding lysine residue in the Nab3 RRM domain undergoes SET1 and SET3-responsive methylation”

Chains of the proteins cited; added tags and fusions are not shown.
UniProt Q00416: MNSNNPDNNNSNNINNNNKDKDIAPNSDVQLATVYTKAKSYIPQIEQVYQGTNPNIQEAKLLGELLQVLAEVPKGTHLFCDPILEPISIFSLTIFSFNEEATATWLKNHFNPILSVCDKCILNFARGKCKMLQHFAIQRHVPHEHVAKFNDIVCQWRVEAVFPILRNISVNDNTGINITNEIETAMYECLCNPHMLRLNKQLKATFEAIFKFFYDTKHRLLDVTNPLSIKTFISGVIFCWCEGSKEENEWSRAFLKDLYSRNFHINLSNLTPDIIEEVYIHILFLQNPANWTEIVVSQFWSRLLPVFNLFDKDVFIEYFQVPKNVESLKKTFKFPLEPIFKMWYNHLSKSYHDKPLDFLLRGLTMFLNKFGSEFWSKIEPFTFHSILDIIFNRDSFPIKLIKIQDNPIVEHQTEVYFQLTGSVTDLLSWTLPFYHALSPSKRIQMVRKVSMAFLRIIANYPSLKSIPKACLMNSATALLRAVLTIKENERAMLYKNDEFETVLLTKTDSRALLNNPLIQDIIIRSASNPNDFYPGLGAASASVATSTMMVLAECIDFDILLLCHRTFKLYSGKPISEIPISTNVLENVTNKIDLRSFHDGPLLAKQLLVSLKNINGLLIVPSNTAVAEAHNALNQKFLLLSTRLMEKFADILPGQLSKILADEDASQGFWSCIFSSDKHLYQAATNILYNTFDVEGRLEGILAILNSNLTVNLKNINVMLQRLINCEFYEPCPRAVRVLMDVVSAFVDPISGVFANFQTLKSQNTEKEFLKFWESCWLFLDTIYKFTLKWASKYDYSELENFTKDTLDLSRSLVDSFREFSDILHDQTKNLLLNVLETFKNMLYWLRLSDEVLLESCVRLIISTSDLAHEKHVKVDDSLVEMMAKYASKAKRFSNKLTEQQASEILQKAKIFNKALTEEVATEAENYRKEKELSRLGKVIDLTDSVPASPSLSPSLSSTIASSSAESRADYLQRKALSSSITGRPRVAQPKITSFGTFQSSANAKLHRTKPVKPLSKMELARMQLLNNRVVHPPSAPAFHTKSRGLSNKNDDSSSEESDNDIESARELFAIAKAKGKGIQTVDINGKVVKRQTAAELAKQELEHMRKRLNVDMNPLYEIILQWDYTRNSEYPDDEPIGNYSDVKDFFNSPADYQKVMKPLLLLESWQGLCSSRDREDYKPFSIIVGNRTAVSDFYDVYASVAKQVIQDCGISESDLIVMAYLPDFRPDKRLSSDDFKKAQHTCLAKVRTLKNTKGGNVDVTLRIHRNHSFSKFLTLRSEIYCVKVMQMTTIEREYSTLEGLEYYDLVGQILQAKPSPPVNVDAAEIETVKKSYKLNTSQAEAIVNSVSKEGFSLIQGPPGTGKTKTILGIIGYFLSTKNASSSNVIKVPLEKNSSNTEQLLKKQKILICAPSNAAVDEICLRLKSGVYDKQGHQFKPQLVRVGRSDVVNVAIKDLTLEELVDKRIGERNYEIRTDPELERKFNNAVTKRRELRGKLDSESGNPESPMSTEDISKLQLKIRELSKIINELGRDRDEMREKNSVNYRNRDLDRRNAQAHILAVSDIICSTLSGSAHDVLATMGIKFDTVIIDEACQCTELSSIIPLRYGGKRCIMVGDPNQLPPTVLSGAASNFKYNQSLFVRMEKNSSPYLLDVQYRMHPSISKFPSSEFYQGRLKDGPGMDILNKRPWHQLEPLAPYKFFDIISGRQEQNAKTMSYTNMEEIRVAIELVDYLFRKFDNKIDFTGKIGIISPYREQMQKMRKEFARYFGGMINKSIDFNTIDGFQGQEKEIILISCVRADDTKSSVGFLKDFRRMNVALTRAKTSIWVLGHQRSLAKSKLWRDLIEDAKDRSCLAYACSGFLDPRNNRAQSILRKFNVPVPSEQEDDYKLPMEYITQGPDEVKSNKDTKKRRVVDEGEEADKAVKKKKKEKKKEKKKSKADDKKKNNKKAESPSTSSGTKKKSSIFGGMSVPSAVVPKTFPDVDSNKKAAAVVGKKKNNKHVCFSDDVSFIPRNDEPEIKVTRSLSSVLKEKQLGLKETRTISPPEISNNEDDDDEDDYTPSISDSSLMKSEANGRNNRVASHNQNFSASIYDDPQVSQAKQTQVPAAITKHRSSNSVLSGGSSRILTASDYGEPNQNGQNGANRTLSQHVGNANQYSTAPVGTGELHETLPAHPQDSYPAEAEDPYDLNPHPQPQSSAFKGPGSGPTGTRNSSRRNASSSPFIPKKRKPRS

T1: Nab3-TAP (S. cerevisiae) (UniProt P38996)
T1 sequence: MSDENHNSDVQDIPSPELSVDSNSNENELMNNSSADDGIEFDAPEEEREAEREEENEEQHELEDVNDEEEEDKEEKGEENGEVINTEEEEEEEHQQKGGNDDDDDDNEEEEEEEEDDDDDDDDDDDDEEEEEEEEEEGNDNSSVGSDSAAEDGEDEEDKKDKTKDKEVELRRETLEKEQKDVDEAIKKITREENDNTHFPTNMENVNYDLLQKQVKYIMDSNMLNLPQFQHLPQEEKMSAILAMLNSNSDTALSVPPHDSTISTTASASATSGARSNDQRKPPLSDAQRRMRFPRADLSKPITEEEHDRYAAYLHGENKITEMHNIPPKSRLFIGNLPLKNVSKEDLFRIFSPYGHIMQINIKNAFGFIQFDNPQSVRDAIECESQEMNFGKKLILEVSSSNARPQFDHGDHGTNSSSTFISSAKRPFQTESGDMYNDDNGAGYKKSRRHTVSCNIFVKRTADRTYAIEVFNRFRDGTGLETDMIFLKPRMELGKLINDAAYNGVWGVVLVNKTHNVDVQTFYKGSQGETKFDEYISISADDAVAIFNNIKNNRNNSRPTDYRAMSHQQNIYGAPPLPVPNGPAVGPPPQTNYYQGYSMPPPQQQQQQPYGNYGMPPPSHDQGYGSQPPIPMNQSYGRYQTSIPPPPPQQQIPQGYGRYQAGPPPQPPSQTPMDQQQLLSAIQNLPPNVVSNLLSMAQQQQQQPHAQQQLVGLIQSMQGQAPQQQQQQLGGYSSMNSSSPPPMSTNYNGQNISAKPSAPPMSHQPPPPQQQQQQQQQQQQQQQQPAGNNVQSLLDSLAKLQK


Target: T1, Nab3-TAP (S. cerevisiae)
Test: affinity purification with mass spectrometry; two-step TAP purification of Nab3-TAP from yeast lysate (IgG Sepharose, TEV elution; calmodulin Sepharose, EGTA elution); Coomassie-stained SDS-PAGE gel and LC-MS/MS of the purified complex

binding | Molecule
binds | Sen1 (from UniProt Q00416 1-2231)
binds | Nrd1 (protein, UniProt P53617 1-575) MQQDDDFQNFVATLESFKDLKSGISGSRIKKLTTYALDHIDIESKIISLIIDYSRLCPDSHKLGSLYIIDSIGRAYLDETRSNSNSSSNKPGTCAHAINTLGEVIQELLSDAIAKSNQDHKEKIRMLLDIWDRSGLFQKSYLNAIRSKCFAMDISNNTANTASQQLSLDPKQRSKQILSNLKKSPPLNLNISLPTDLTSTDPAKQQAALFQVIAALQKHFKTLPSHTSVGTVAPPQAHTITEYGSRRERERERERYNSRRNRSRSPPAPFSQPSTGRKDRYPSVAQDQYSIGAPNTTFGTNNHHLYPDELNVSNNPHYRPKPVSYDSTLPPDHIKVYSRTLFIGGVPLNMKEWDLANVLKPFAEVQSVILNNSRKHAFVKVYSRHEAENVLQNFNKDGALPLRTRWGVGFGPRDCCDYQHGYSIIPMHRLTDADKKWSVSAQWGGTSGQPLVTGIVFEEPDIIVGEGVSSKAISQKMPTDSGRNGPRSGKPNKSGSISSISPVPYGNAPLASPPPQQYVQPMMQQPYGYAPNQPLPSQGPAAAAPPVPQQQFDPTAQLNSLMNMLNQQQQQQQQS

No constants are given. Whether binding was seen depends on the method and setting. Binding seen in cells or lysates may run through a third protein. Here binding means that the protein was enriched with, or labelled near, the bait; the list need not be complete.
